# Most values lie at the floor of the assay. Slopes are relative: functional sequences can read slightly below zero.
# System: Saccharomyces cerevisiae PS128 hsf1 delta, HSF1(1-493) fusion
# Experiment: growth estimate (transactivation domain function in HSF1 fusion, heat-shock survival) (a.u. (slope of normalised read count over time)); higher = stronger growth at 37°C, i.e. more transactivation activity
# Settings: library: random library
row,Substance,growth estimate
1,WPKLVGCCLFISRDLHFRFL,< -0.25
2,WPKSLPEGSRNSTSVCI,< -0.25
3,WPKSPAGPERLP,< -0.25
4,WPLAVKSSPNWGFKAVLTNI,< -0.25
5,WPNKSAFRLTRKISSSDSCP,< -0.25
6,WPNLQESAPRDVRLLGPPDT,< -0.25
7,WPQIARGANSLYVGLLAEGS,< -0.25
8,WPRLQLVMLLSLWLCSLEVY,< -0.25
9,WPRYQYARVYTPRVADCKRS,< -0.25
10,WPSAQHTPSLATR,-0.0341
11,WPTHYGCAVGIGRGGRHRCC,< -0.25
12,WPVCEAHIFEREVGVHYGAI,< -0.25
13,WPVERWVSGE,< -0.25
14,WPYGDNTLIARQLWGSPIDF,< -0.25
15,WQCTRRG,< -0.25
16,WQFMKQ,< -0.25
17,WQHESLTRVVRYRV,< -0.25
18,WQICPRASLIC,< -0.25
19,WQLALGV,< -0.25
20,WRAALGGHCNSYG,< -0.25
21,WRAKTPLRGARGLAETEPWL,< -0.25
22,WRANIRSEPSLEAGPLLNAL,< -0.25
23,WRAVLHGRLTLRWAPSE,< -0.25
24,WRCFVLPVA,< -0.25
25,WRCGFWMGGRGVPKEDAPSR,< -0.25

row,Substance,growth estimate
1,WRCIPS,-0.208
2,WRCYCPVCMVLCHSYFWPVT,< -0.25
3,WRDISSTEKDMQPEKTVGLG,< -0.25
4,WRFPDKARLKAP,< -0.25
5,WRGKLT,< -0.25
6,WRGLHRSVYASLPGEMPIRP,< -0.25
7,WRGRECTCN,< -0.25
8,WRGVLDDEDGYCAEYRCQGV,< -0.25
9,WRIARSERRRTTQLRKYATR,< -0.25
10,WRIV,< -0.25
11,WRKGG,< -0.25
12,WRKLGIHDS,< -0.25
13,WRLGELPLGEQPRTRKARTL,< -0.25
14,WRLPRVGGGVLLFDDSLGAP,< -0.25
15,WRM,< -0.25
16,WRMGQVLVTAVRGFLCNKAD,< -0.25
17,WRPQSMVVDMI,< -0.25
18,WRTRGPIVMPVPKGFLLHGP,< -0.25
19,WSASIVQTSALF,< -0.25
20,WSEGLGSNRNSLILPTYQR,< -0.25
21,WSEGQSFPR,< -0.25
22,WSGSCKT,-0.246
23,WSHSATKTSFGLEI,< -0.25
24,WSKDLRGPQAVDAIQELRYS,< -0.25
25,WSLVS,< -0.25

row,Substance,growth estimate
1,WSNAVMDGY,< -0.25
2,WSQFVVLVSLPP,< -0.25
3,WSQKFYGGLGHIRSGLGHSF,2.22
4,WSRCPSGIPGSHIGGVALGK,< -0.25
5,WSRPRSHLQMRTHPLHRAFS,-0.199
6,WSRSWRHRIYDLYITCRKL,< -0.25
7,WSTADASGPFERIVNTSTE,< -0.25
8,WSTGGPLLLIRLD,< -0.25
9,WSTRGVAGPPRGNRMCSSGA,< -0.25
10,WSTRLQGVCLHKNS,< -0.25
11,WSVAEA,< -0.25
12,WSVGCGGHCSIRQ,< -0.25
13,WSVICGRTPKFRPGS,< -0.25
14,WTAEF,< -0.25
15,WTAGVNEMGTCYQLPSRILS,< -0.25
16,WTGGLLNVFLFYPEMVHLRI,< -0.25
17,WTGWDSVHSVPLVRRRWAWK,< -0.25
18,WTIALATARGGLLPARTRDT,< -0.25
19,WTILKVRWSDSYYGADKAIG,< -0.25
20,WTLPLVVRSC,< -0.25
21,WTREVTRTGQSRAWVQSIAQ,< -0.25
22,WTRRM,< -0.25
23,WTRTG,< -0.25
24,WTVSLRPRALPRVKSLVLMI,< -0.25
25,WTWPSAAL,< -0.25

row,Substance,growth estimate
1,WVAAPVLVAVDQRS,< -0.25
2,WVAIGVTRWVHVHFGLCLTR,< -0.25
3,WVASRCRGCLIDQV,< -0.25
4,WVDLGPSLSSSGKK,< -0.25
5,WVEIATWLGLLSQVWREA,< -0.25
6,WVGGRPVLKAGGQSELLFPG,< -0.25
7,WVGIRAAH,< -0.25
8,WVGNT,-0.231
9,WVLGTRCC,< -0.25
10,WVLVIIWLECDL,< -0.25
11,WVP,< -0.25
12,WVQGYLGRDKSCKAEGGV,< -0.25
13,WVRRICGVRGNSKWISRHSA,< -0.25
14,WVSATSLVLPGMFCRGESQL,< -0.25
15,WVTPTCSCVGEGQRLHIGLG,< -0.25
16,WVTPYIKQLLSMAARVVPCA,< -0.25
17,WVVSTR,< -0.25
18,WVYLRRPSIHKV,< -0.25
19,WWCFFGLLYDGFC,< -0.25
20,WWCRLDASEHLQLGSG,< -0.25
21,WWF,-0.179
22,WWGGPTAPLALESAPVAGPR,< -0.25
23,WWGMTVHRP,-0.245
24,WWGYLSHNGTSDWLRSFTEI,-0.112
25,WWMPSWQGSAHDQHVSVTPR,< -0.25

# No new results follow: an excerpt of the list.
row,Substance,growth estimate
5,WVEIATWLGLLSQVWREA,< -0.25
6,WVGGRPVLKAGGQSELLFPG,< -0.25
7,WVGIRAAH,< -0.25
8,WVGNT,-0.231
9,WVLGTRCC,< -0.25
10,WVLVIIWLECDL,< -0.25
11,WVP,< -0.25
12,WVQGYLGRDKSCKAEGGV,< -0.25
13,WVRRICGVRGNSKWISRHSA,< -0.25
14,WVSATSLVLPGMFCRGESQL,< -0.25
15,WVTPTCSCVGEGQRLHIGLG,< -0.25
16,WVTPYIKQLLSMAARVVPCA,< -0.25
17,WVVSTR,< -0.25
18,WVYLRRPSIHKV,< -0.25
19,WWCFFGLLYDGFC,< -0.25
20,WWCRLDASEHLQLGSG,< -0.25
21,WWF,-0.179
22,WWGGPTAPLALESAPVAGPR,< -0.25
23,WWGMTVHRP,-0.245
24,WWGYLSHNGTSDWLRSFTEI,-0.112
25,WWMPSWQGSAHDQHVSVTPR,< -0.25

# Source: the supplement of paper PMC5949888
